The source of these data is the supplement of paper PMC10849652.

Chains of the proteins cited; added tags and fusions are not shown. Lines headed by an entry give the natural chain unless they say otherwise; changes in a name come on top.
UniProt Q9NRN9: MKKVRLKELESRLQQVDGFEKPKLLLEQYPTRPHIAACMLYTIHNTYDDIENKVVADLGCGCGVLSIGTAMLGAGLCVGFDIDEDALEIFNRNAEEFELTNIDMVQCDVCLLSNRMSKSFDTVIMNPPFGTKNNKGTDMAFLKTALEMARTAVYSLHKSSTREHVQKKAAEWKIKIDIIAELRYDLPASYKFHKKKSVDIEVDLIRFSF
UniProt Q9HCE5: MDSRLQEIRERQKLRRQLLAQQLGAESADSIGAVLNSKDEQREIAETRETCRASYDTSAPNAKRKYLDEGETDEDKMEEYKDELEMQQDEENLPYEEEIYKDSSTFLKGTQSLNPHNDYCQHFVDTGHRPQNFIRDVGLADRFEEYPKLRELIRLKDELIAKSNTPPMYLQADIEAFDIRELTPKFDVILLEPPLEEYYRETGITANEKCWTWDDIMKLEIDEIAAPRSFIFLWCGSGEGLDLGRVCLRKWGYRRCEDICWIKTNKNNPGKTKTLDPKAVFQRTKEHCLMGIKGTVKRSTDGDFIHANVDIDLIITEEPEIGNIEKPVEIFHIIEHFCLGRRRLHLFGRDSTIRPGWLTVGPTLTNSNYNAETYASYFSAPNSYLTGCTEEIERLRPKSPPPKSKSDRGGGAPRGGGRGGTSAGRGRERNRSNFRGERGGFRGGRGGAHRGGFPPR
UniProt Q02078: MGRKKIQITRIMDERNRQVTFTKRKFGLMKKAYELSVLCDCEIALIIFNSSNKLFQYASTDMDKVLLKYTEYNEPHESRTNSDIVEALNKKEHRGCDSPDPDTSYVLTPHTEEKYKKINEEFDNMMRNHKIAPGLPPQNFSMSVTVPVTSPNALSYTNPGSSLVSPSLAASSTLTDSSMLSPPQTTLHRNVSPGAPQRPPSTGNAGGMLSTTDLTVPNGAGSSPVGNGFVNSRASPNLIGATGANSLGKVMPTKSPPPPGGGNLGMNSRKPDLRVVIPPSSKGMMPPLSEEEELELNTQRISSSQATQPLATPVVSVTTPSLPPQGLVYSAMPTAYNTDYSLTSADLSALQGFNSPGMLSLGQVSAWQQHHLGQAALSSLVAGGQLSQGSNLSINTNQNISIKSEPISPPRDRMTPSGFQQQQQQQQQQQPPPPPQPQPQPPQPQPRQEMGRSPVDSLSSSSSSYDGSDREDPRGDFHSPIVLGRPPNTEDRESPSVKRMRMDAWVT
UniProt O43513: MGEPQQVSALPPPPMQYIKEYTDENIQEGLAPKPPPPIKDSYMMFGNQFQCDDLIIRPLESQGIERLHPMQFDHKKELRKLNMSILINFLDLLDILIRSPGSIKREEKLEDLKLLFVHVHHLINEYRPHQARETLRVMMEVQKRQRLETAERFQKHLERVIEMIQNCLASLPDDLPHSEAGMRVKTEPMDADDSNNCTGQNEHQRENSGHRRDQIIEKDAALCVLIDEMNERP
UniProt Q5TF39: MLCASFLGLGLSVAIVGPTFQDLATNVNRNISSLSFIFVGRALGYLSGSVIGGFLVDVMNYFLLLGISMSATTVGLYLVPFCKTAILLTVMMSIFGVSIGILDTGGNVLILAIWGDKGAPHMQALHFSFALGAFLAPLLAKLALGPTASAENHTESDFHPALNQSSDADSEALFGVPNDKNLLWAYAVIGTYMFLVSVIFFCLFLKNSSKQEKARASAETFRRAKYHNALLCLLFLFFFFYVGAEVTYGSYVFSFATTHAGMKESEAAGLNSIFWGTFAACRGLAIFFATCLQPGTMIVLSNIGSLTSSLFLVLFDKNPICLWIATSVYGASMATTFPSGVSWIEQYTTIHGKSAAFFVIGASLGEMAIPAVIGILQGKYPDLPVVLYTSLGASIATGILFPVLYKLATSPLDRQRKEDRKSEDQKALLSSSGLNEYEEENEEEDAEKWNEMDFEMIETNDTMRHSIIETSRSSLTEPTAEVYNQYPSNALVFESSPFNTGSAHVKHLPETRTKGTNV
UniProt Q96IZ6: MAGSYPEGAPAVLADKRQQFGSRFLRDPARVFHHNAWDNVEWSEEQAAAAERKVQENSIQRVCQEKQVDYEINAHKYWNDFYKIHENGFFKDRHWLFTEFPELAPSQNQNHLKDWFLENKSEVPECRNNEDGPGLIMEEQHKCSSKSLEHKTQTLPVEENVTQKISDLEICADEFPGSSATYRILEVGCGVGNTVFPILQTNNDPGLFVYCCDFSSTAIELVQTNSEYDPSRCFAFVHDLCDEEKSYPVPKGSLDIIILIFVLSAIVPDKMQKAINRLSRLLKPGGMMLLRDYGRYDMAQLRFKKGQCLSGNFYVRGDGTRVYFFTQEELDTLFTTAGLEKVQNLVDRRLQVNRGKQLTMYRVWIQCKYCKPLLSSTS
UniProt Q9NPJ6: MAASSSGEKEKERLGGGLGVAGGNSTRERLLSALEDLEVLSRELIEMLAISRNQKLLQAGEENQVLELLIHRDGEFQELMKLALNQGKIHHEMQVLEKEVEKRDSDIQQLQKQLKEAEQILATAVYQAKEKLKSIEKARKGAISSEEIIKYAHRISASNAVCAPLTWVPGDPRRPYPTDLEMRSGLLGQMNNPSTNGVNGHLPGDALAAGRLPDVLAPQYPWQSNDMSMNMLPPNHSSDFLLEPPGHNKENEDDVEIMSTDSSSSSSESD
UniProt P50579: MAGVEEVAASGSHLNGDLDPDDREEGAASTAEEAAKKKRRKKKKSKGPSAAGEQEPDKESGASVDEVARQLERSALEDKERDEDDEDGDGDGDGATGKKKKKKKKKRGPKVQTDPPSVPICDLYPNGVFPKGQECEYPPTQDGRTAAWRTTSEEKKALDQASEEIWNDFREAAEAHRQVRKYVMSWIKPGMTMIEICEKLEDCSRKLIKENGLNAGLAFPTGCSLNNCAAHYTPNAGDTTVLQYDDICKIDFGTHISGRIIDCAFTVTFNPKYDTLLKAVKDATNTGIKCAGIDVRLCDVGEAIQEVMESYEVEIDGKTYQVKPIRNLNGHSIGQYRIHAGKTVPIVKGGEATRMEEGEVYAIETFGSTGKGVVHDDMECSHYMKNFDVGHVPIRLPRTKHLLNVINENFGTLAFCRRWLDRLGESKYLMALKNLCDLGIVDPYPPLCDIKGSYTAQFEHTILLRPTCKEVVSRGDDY
UniProt O95983: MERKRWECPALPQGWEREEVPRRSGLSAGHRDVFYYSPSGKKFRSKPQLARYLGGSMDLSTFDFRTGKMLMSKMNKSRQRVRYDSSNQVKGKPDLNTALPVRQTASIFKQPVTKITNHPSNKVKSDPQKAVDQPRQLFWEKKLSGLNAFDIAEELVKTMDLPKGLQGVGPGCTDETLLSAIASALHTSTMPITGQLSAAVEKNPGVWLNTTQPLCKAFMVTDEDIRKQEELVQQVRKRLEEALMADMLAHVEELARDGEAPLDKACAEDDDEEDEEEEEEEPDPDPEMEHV
UniProt Q9UBB5, whole entry, looked up: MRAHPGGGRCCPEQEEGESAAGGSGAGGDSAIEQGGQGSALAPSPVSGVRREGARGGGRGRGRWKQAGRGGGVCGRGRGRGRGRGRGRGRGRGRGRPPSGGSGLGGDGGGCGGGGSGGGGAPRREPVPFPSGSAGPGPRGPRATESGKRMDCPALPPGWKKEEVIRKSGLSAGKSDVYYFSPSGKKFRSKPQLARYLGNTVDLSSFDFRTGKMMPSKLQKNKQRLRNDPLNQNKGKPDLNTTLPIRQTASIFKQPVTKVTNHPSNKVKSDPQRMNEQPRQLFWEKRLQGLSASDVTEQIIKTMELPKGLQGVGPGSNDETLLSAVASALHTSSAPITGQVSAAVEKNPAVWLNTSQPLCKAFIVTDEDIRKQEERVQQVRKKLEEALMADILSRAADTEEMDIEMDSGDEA
UniProt Q96RN5: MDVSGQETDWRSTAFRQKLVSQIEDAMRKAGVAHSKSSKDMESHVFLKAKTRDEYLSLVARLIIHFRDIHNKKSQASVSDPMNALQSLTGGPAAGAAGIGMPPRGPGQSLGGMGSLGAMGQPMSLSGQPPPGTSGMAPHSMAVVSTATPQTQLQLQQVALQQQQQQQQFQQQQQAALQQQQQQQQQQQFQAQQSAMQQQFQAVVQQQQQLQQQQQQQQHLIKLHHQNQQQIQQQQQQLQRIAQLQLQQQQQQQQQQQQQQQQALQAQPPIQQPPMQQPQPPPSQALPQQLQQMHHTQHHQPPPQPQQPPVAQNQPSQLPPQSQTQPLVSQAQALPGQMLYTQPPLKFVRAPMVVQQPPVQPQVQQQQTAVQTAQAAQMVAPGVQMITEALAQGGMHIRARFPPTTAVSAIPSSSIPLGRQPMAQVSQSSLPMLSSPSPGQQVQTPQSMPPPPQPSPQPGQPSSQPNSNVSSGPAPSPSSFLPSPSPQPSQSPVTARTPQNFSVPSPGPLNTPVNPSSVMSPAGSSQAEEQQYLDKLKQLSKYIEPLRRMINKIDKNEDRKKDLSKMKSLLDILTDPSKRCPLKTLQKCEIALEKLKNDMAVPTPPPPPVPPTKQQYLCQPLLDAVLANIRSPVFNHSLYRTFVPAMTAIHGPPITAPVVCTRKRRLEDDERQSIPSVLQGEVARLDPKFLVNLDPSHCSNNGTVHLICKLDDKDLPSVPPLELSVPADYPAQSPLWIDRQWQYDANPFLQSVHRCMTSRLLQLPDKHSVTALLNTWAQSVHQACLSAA
UniProt Q16798: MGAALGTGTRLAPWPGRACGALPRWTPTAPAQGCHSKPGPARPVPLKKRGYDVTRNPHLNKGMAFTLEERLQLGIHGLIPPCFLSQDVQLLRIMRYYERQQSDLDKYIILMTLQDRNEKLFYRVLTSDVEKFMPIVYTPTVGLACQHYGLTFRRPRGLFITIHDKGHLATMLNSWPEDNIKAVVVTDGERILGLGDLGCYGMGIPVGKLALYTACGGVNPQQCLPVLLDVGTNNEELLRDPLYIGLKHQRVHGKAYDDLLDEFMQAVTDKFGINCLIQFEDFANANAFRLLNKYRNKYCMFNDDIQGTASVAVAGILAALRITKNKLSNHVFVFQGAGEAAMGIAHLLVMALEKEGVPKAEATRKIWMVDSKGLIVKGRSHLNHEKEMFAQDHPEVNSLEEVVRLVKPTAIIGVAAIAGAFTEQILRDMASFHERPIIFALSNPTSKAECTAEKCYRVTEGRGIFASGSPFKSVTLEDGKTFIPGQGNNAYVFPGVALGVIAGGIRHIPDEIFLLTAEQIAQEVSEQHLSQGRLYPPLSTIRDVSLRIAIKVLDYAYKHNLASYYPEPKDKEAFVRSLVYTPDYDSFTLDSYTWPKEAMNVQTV
UniProt P51608, whole entry, looked up: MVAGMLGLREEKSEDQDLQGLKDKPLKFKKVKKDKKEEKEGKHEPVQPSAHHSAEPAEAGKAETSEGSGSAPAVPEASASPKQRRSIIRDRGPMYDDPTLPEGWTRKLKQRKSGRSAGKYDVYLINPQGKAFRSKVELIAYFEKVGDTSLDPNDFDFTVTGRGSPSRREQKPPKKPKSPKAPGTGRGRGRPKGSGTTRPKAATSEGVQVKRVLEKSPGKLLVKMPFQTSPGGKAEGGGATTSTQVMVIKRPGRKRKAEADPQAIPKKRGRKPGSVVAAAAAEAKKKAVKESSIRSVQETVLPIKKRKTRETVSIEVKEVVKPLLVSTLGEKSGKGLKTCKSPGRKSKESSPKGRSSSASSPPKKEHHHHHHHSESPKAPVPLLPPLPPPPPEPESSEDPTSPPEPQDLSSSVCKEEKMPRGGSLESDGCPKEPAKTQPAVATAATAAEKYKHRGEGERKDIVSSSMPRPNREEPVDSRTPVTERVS
UniProt Q96HR3: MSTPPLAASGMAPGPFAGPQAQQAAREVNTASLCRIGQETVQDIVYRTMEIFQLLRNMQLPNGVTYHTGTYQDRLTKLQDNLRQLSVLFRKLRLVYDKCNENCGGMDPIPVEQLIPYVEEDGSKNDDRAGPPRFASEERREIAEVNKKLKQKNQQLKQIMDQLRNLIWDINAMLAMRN
UniProt Q9BUT9: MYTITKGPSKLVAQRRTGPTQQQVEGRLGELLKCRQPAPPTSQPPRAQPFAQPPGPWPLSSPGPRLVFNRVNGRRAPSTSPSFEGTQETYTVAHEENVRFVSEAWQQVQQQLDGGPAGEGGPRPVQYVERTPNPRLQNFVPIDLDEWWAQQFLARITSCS
UniProt Q14814: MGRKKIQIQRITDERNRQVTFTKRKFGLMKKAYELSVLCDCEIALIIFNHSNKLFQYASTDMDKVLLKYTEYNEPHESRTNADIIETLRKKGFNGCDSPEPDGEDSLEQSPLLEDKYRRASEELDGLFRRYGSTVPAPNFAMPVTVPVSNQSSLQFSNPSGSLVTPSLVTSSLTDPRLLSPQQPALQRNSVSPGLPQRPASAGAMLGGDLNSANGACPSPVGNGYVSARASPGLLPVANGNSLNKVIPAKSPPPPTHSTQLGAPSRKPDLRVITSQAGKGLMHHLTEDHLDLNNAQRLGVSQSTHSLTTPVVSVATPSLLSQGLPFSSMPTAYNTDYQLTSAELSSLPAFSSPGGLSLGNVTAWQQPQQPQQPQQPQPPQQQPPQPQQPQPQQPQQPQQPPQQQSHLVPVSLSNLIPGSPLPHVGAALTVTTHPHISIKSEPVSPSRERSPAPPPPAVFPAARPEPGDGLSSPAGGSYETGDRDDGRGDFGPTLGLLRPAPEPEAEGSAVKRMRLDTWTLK

The list shows a part of the results.

Compound in this assay: Cc1ccc(-n2nc(C(C)(C)C)cc2NC(=O)Nc2ccc(OCCN3CCOCC3)c3ccccc23)cc1 [doramapimod]
The assay can be described thus: log2 fold change, soluble protein after heating vs DMSO (PISA); higher = thermal stabilisation; K562 lysate, 10 uM; active = over 0.2 and 3.5 SD of the protein, either way, in both replicates (recomputed). The essentials: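 K562 pellets were dounce-homogenised in PBS pH 7.4 containing 1 mM MgCl2, and the crude extract, at 1 mg/mL protein, was exposed to 10 μM compound for 30 min. Aliquots were heated for 3 min across 48°C-58°C, pooled, brought to 0.5% NP-40 at 4°C and spun at 21,000xg for 90 min, with the supernatant taken as soluble protein. TMTpro 16plex LC-MS/MS with equalised channel sums quantified that protein. Values are log-two fold changes in thermal stability relative to solvent controls, taken from duplicates.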
With MCMBP (UniProt Q9BTE3), the log2 fold change was inactive: -0.001. As for MED20 (UniProt Q9H944), the log2 fold change was inactive: -0.047. To METTL5 (UniProt Q9NRN9) belongs inactive: 0.032; to MDH2 (UniProt P40926), inactive: 0.022. To METTL14 (UniProt Q9HCE5) belongs inactive: 0.024.

For MECR (UniProt Q9BV79), the log2 fold change was inactive: 0.02. To METAP1D (UniProt Q6UB28) belongs inactive: 0.026; to MEF2A (UniProt Q02078), inactive: 0.022; to MFSD10 (UniProt Q14728), inactive: -0.013. Take MCL1 (UniProt Q07820): the log2 fold change is inactive: 0.042. To MCM6 (UniProt Q14566) belongs inactive: 0.002; to MED7 (UniProt O43513), inactive: 0.033. The figure for MFSD4B (UniProt Q5TF39) is inactive: -0.096. To ME2 (UniProt P23368) belongs inactive: 0.015. For the target METTL2A (UniProt Q96IZ6), the log2 fold change was inactive: 0.035. To MFN2 (UniProt O95140) belongs inactive: 0.058.

In the case of MED8 isoform 2 (UniProt Q96G25), the log2 fold change was inactive: 0.069.

Consider MED4 (UniProt Q9NPJ6), for which the log2 fold change was inactive: -0.036. On to METTL16 (UniProt Q86W50), for which the log2 fold change is inactive: -0.04. The figure for MEF2C isoform 5 (UniProt Q06413) is inactive: 0.095; for MCUR1 (UniProt Q96AQ8) it is inactive: -0.027. In the case of METAP2 (UniProt P50579), the log2 fold change was inactive: -0.041. The figure for MBD3 (UniProt O95983) is inactive: -0.063; for MBD2 (UniProt Q9UBB5) it is inactive: 0.045; for MED15 (UniProt Q96RN5) it is inactive: -0.012. The figure for MCFD2 (UniProt Q8NI22) is inactive: -0.067; for MCM2 (UniProt P49736) it is inactive: 0.002. To MEAF6 isoform 3 (UniProt Q9HAF1) belongs inactive: 0.117; to ME3 (UniProt Q16798), inactive: 0.042; to MECP2 isoform 2 (UniProt P51608), inactive: -0.017. On to MBOAT2 (UniProt Q6ZWT7), for which the log2 fold change is inactive: -0.12. The figure for MCM4 (UniProt P33991) is inactive: 0.045; for MEA1 (UniProt Q16626) it is inactive: 0.018; for MFAP1 (UniProt P55081) it is inactive: -0.135.

In the case of MED30 (UniProt Q96HR3), the log2 fold change was inactive: 0.04. To METTL3 (UniProt Q86U44) belongs inactive: 0.023; to MCRIP1 (UniProt I3L4Q0), inactive: 0.046.

Turning to MCRIP2 (UniProt Q9BUT9), the log2 fold change was inactive: -0.027. In the case of MEF2D (UniProt Q14814), the log2 fold change was inactive: -0.041.

Consider MESD (UniProt Q14696), for which the log2 fold change is inactive: 0.018.
